Results as given in patent US20060121040A1, “Compositions and methods for treating neuroendocrine tumors” (Wisconsin Alumni Research Foundation, priority 2004, published 2006).
Entries after “also recorded” stand apart in the source; their conditions may differ. At least one structure is not confirmed: it was looked up by name or label, or the drawing left a doubt.

How the values were obtained:
[1] = system: Raf-1 pathway mediators MEK1/2 and ERK1/2; assay: Raf-1 activation by estradiol in BON-raf cells, MEK1/2 and ERK1/2 phosphorylation; type: cell-based, human; settings: 1 μmol/L estradiol vs ethanol
hASH1 = hASH1 in BON-raf cells after estradiol; type: cell-based, human
GSK3β = GSK3β after estradiol treatment of BON-raf, TT-raf and H727-raf cells; type: cell-based; settings: BON-raf
chromogranin A (CgA) = assay: Chromogranin A in BON-raf cells after estradiol; type: cell-based, human; settings: estradiol vs ethanol

## C[C@]12CC[C@@H]3c4ccc(O)cc4CC[C@H]3[C@@H]1CC[C@@H]2O [estradiol, β-estradiol]
[1]
  MEK1/2 and ERK1/2 phosphorylation: activation; also recorded: phosphorylation
hASH1; days 2, 4 and 6
  hASH1 level: reduces the level
hASH1; days 2, 4 and 6, listed as Estradiol
  hASH1 level: significant reductions
GSK3β
  GSK3β activity: significant inhibition
Chromogranin A (CgA)
  chromogranin A level: reduction; also recorded: reduces the level
